PubChem BioAssay AID1259254 | NCATS – 2017
Test: 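Genome-wide screen for genes that prevent DNA re-replication in cancer cells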 (primary screen). Cell system: human HCT116 colorectal cancer cells. Reagents: single siRNA against human genes. Duration: 3 days. Read-out: 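Imaged Hoechst DNA stain sorts each cell into a cycle phase by DNA amount; per plate, G2 fraction set to 0% for non-targeting and 100% for GMNN siRNA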. Scale: G2 robust z-score: higher = more G2 cells, more excess DNA replication. Hit rule: 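Active siRNAs have a G2 robust z of 5 or more median absolute deviations over the median, which in these data means about 38% or higher of GMNN control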.
The whole screen tested about 59,000 reagents; this is a part drawn at random. In the full data, about 1,550 (2.6%) got an active call. 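G2 share is only a proxy for re-replication; each gene was hit by three separate siRNAs, and active genes were retested.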 A number with no mark means an inactive call. Reagents against one gene are numbered here. Not all columns of the deposit are shown. Reagent sequences are not shown. Not given: the amount of reagent.

With SRSF1 (serine and arginine rich splicing factor 1) #1, how do the results read?
G2 robust z-score: 1.94

How did the screen score SRSF1 (serine and arginine rich splicing factor 1) #2?
G2 robust z-score: 0.745

What did the screen give for SRSF1 (serine and arginine rich splicing factor 1) #3?
G2 robust z-score: 11 (active)

Which result is listed for CIP2A (cellular inhibitor of PP2A) #1?
G2 robust z-score: -0.855

How did the screen score CIP2A (cellular inhibitor of PP2A) #2?
G2 robust z-score: 2.03

For CIP2A (cellular inhibitor of PP2A) #3, what was measured?
G2 robust z-score: -0.438

For FBRSL1 (fibrosin like 1) #1, what does the deposit list?
G2 robust z-score: -0.112

What did the screen give for FBRSL1 (fibrosin like 1) #2?
G2 robust z-score: 3.28

What is on record for FBRSL1 (fibrosin like 1) #3?
G2 robust z-score: -0.728

What is on record for FBRSL1 (fibrosin like 1) #4?
G2 robust z-score: 0.893

With FBRSL1 (fibrosin like 1) #5, what was measured?
G2 robust z-score: -0.117

Which result is listed for FBRSL1 (fibrosin like 1) #6?
G2 robust z-score: -0.837

For NPIPB3 (nuclear pore complex interacting protein family member B3) #1, how do the results read?
G2 robust z-score: 0.675

Which result is listed for NPIPB3 (nuclear pore complex interacting protein family member B3) #2?
G2 robust z-score: 0.253

What did the screen give for NPIPB3 (nuclear pore complex interacting protein family member B3) #3?
G2 robust z-score: -0.265

How did the screen score H3-4 (H3.4 histone, cluster member) #1?
G2 robust z-score: -0.188

For H3-4 (H3.4 histone, cluster member) #2, how do the results read?
G2 robust z-score: 1.31

How did the screen score H3-4 (H3.4 histone, cluster member) #3?
G2 robust z-score: 0.216

For ZNF713 (zinc finger protein 713) #1, how do the results read?
G2 robust z-score: 0.711

What is on record for ZNF713 (zinc finger protein 713) #2?
G2 robust z-score: -0.829

For ZNF713 (zinc finger protein 713) #3, what does the deposit list?
G2 robust z-score: 0.734

How did the screen score TCEANC2 #1?
G2 robust z-score: -1

Which result is listed for TCEANC2 #2?
G2 robust z-score: -0.781

Which result is listed for TCEANC2 #3?
G2 robust z-score: 0.328

Entries above whose gene name starts with H or h (3):
H3-4 (H3.4 histone, cluster member) #1 | G2 robust z-score = -0.188
H3-4 (H3.4 histone, cluster member) #2 | G2 robust z-score = 1.31
H3-4 (H3.4 histone, cluster member) #3 | G2 robust z-score = 0.216
